Results of single-concentration screens

Protein sequences, listed by entry. Tags and fused reporters are not part of them.
UniProt P9WPC5, whole entry: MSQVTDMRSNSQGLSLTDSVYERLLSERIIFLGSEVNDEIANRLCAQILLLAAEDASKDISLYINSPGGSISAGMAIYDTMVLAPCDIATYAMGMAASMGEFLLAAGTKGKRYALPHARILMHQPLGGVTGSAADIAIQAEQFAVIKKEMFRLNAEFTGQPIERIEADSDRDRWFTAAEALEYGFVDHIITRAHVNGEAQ
UniProt P9WPC3, whole entry partner: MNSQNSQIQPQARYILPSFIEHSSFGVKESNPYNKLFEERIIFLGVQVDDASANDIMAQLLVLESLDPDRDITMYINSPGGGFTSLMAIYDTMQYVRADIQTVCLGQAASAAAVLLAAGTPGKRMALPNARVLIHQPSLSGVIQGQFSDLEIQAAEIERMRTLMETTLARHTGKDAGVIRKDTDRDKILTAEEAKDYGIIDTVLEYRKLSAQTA

From ChEMBL document CHEMBL3988442, “University of Dundee, Small-Polar-MMV Screening Library” (2021).

Toxoplasma: 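Assay of Toxoplasma gondii numbers, read through their beta-galactosidase reporter with a colour substrate. Compounds at 10 µM. The record gives no direction; the compounds picked for IC50 retests had high values, so higher reads as fewer parasites. Of about 67,000 compounds tested this way, about 260 (0.38%) reached 50% or more in at least one test.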
ClpP1P2: 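Protease assay of ClpP1P2, read by the AMC dye that it sets free. Target: ClpP1P2, Mycobacterium tuberculosis (UniProt P9WPC5 and UniProt P9WPC3). Compounds at 50 µM. Direction is inferred from only a few compounds that gave an IC50; most scored high, so higher reads as stronger inhibition. Most other retested compounds had strongly negative values. About 69,000 compounds were tested under these conditions; 0.015% (about 10) showed 50% or more at least once.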

Results are given as percent effect. The record does not define 0% and 100%; most values in the screen are far below 50% and negative numbers occur (in some assays of this library far below -100). The compounds are a random part of those screened.

C1CC(NCC2CC2)CN(Cc2noc(C3CC3)n2)C1 (stereo unspecified) read Toxoplasma: 1.676%; ClpP1P2: -7.749%. CCN(CCc1nccs1)C(=O)c1ccco1 gave Toxoplasma: -34.01%; ClpP1P2: -17.73%. Result for O=C(O)C(F)(F)F.O=C(c1ccccn1)N1CCCC2(CCN(c3ccsc3)C2=O)C1 (stereo unspecified) was Toxoplasma: -13.97%. Result for CC1CC(=O)c2cc(C(=O)N3CCc4ccccc4C3)c(=O)[nH]c2C1 (stereo unspecified) was Toxoplasma: -15.95%; ClpP1P2: 3.169%. For O=C1NC(c2ccccc2)=N[C@@]12CC[C@@H]1CN(CC3CC3)C[C@@H]12 the result was ClpP1P2: -5.054%. Cc1nn(C)c(C)c1CCC(=O)OCC(=O)N1CCc2sccc2C1 read Toxoplasma: 2.065%; ClpP1P2: -8.939%. Result for O=S(=O)(NCC1COc2ccccc2C1)N1CCCCCC1 (stereo unspecified) was Toxoplasma: 4.5%; ClpP1P2: -11.7%.

For O=C(O)C(F)(F)F.[H][C@]12CCN(C(=O)c3cccs3)CC[C@]1([H])N(CCOC)CCO2 the result was Toxoplasma: -0.7979%. For CN1CCOC(CNCc2cccc(OCC(F)(F)F)c2)C1 (stereo unspecified) the result was ClpP1P2: 3.947%. With CS(=O)(=O)N1CCN(C(=O)c2[nH]c3ccc(Cl)cc3c2Cl)CC1 the screen gave Toxoplasma: -1.23%; ClpP1P2: 5.841%. Cc1cc2nccc(C3CCCN(C(=O)c4ccccc4F)C3)n2n1 (stereo unspecified) read Toxoplasma: -27.96%; ClpP1P2: -21.1%. CC(C)C(NC(=O)Cn1ccc(=O)n(C)c1=O)c1ccc(F)cc1 (stereo unspecified) gave Toxoplasma: -23.47%; ClpP1P2: -2.44%. Cc1cc2c(cc1NC(N)=O)OCO2 gave Toxoplasma: 0.9596%; ClpP1P2: 10.65%. For Cc1oncc1C(=O)N1CC[C@H]2[C@H](C[C@@H](CN(C)C)N2CC2CC2)C1 the result was ClpP1P2: -5.469%.

With CCn1c(N)nc2cc(C(=O)NCCc3nnc(C)s3)cnc21 the screen gave Toxoplasma: -9.288%; ClpP1P2: -14.06%. CC(C)[C@H](N)C(=O)N1CCSc2ccccc2C1 read ClpP1P2: -3.097%. Cn1ncc2c1C(COCC1CC1)CN(S(C)(=O)=O)C2 (stereo unspecified) read Toxoplasma: -4.47%; ClpP1P2: -3.463%. With CC(=O)N1CCCC(c2cccc(-n3ccnc3)n2)C1 (stereo unspecified) the screen gave Toxoplasma: -36.28%; ClpP1P2: -9.004%. With [H][C@@]12CCN(C(=O)c3ccncc3)C[C@@]1([H])O[C@@H](C)C2 the screen gave Toxoplasma: -5.369%. O=C(O)C(F)(F)F.[H][C@@]12CCN(c3ccncn3)C[C@]1([H])O[C@@H](C(=O)NCc1ccco1)C2 read Toxoplasma: 14%. With CC(C)Cc1cc(C(=O)N2CCC(Cc3cnn(C)c3)C2)cc(O)n1 (stereo unspecified) the screen gave Toxoplasma: 4.062%; ClpP1P2: -30.32%.

With COc1ccc(CN(CC2CCCO2)C(=O)CN2CCCCC2=O)cc1 (stereo unspecified) the screen gave Toxoplasma: -12.15%; ClpP1P2: -7.32%. For OC1(CNCCc2nc3c(s2)CCCC3)CCNC1 (stereo unspecified) the result was Toxoplasma: 6.443%; ClpP1P2: 22.8%. Result for [H][C@]12CCN(S(=O)(=O)c3cccc(F)c3)[C@@]1([H])CC[C@@H](COC)O2 was Toxoplasma: 2.358%. Result for CN(C)CCN(Cc1ccc(Cl)cc1)C(=O)c1cc[nH]n1 was Toxoplasma: -4.594%; ClpP1P2: -5.373%. Cc1ccc(NC(=O)[C@@H]2C[C@H](C(=O)O)CN(Cc3sccc3C)C2)cn1 read Toxoplasma: 7.54%; ClpP1P2: -1.288%. CCn1nc(C)c(CCNC(=O)c2coc(CN3CCOCC3)c2)c1C gave Toxoplasma: -5.52%; ClpP1P2: -12.26%. For CC(C)[C@H](Nc1nc(C2CCCC2)nc2c1cnn2C)C(N)=O the result was Toxoplasma: -13.89%; ClpP1P2: -7.834%.

With O=C(Cc1ccc2c(c1)OCO2)N1CCCN(c2nccs2)CC1 the screen gave Toxoplasma: 18.06%; ClpP1P2: -15.19%. With CCN(Cc1noc(C2CC2)n1)Cc1ccc(C#N)cc1F the screen gave Toxoplasma: 1.793%; ClpP1P2: -17.38%. For O=C(O)C(F)(F)F.O=C(O)C(F)(F)F.[H][C@@]12CN(Cc3ccc(F)cc3)C[C@]1([H])C(=O)N(CCN1CCCC1)C2 the result was Toxoplasma: -2.922%. CC(C)(C)NC(=O)c1cccc(CN2CCS(=O)(=O)CC2)c1 gave Toxoplasma: 10.24%; ClpP1P2: -0.7617%. Cc1cnn(CC2CCCCN2Cc2nc(-c3ccoc3)no2)c1 (stereo unspecified) gave Toxoplasma: 10.63%; ClpP1P2: 2.955%. CN1CCC2(COCc3cnc(N4CCOCC4)nc32)C1 (stereo unspecified) read ClpP1P2: 5.707%. O=C(NC1CCCN(c2ccc(OC(F)F)cc2)C1)c1cc[nH]n1 (stereo unspecified) read Toxoplasma: 17.35%; ClpP1P2: 1.235%.

For [H][C@]12CC[C@]([H])(CN(c3ncccc3C(N)=O)C1)N(CC=C(C)C)C2=O the result was Toxoplasma: 3.034%. CC(C)CNC(=O)c1sccc1-n1cnnn1 gave Toxoplasma: 14.71%; ClpP1P2: 4.847%. O=C(O)C(F)(F)F.[H][C@]12CCC[C@@]1(COc1ccccn1)CN(C(=O)c1c(C)noc1C)C2 gave Toxoplasma: 0.4014%.

For reference, 5 entries once more:

* CC(=O)N1CCCC(c2cccc(-n3ccnc3)n2)C1 (stereo unspecified) | Toxoplasma: -36.28%; ClpP1P2: -9.004%
* CC(C)C(NC(=O)Cn1ccc(=O)n(C)c1=O)c1ccc(F)cc1 (stereo unspecified) | Toxoplasma: -23.47%; ClpP1P2: -2.44%
* O=C1NC(c2ccccc2)=N[C@@]12CC[C@@H]1CN(CC3CC3)C[C@@H]12 | ClpP1P2: -5.054%
* CCn1c(N)nc2cc(C(=O)NCCc3nnc(C)s3)cnc21 | Toxoplasma: -9.288%; ClpP1P2: -14.06%
* [H][C@@]12CCN(C(=O)c3ccncc3)C[C@@]1([H])O[C@@H](C)C2 | Toxoplasma: -5.369%